# Results: the supplement of paper PMC9135407
# Where “and” joins values, the source holds several entries; their conditions need not be identical. Identical values can stand only once. Counter-ions that a name gives are not always drawn. ± gives the standard deviation of the averaged measurements. The list shows a part of the results. Part of the spread comes from offsets between plates or batches.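 Culture-activated primary human stellate myofibroblasts, where regained lipid droplets signal inactivation. Value: share of Hoechst-counted cells above a per-plate Bodipy cutoff, in duplicate wells, with DMSO negative and nortriptyline positive controls on each plate. Hits: a control-normalized score above the plate's top-tenth-percentile nortriptyline wells, or one of a plate's three best wells. Final well concentrations are not given.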
# Test system: primary human hepatic stellate cells (donor 1)
# Experiment: percent Bodipy-positive cells; higher = more lipid droplet accumulation
# Conditions: 48 h
# [1] = library stock concentration: 1 mM
# [2] = library stock concentration: 10 mM
# [3] = library stock concentration: 3.33 mM
# [4] = library stock concentration: 100 uM
compound,measurement,setting,value
NCC1(CC(=O)O)CCCCC1 [Gabapentin],percent Bodipy-positive cells,,8.92 ± 3.1%
same,percent Bodipy-positive cells,[1],10.4 ± 0.6%
O=C1C2CCN(CC2)C1(CO)CO,percent Bodipy-positive cells,library stock concentration: 27 mM,97.4 ± 2.6%
Cl.Cl.Fc1ccc(C(OCCN2CCN(CCCc3ccccc3)CC2)c2ccc(F)cc2)cc1,percent Bodipy-positive cells,[2],82.1 ± 1%
Cl.Oc1ccc2c3c1O[C@H]1c4[nH]c5ccccc5c4C[C@@]4(O)C(C2)N(CC2CC2)CC[C@]314 [Naltrindole hydrochloride],percent Bodipy-positive cells,[2],80.3 ± 4.3%
CCN1CCN(C(=O)Cc2ccc(Nc3ncc(F)c(Nc4ccc(C(=O)Nc5ccccc5Cl)cc4)n3)cc2)CC1 [Aurora A Inhibitor I],percent Bodipy-positive cells,[3],92.3 ± 2.3%
CCN1CCN(C(=O)Cc2ccc(Nc3ncc(F)c(Nc4ccc(C(=O)Nc5ccccc5Cl)cc4)n3)cc2)CC1,percent Bodipy-positive cells,library stock concentration: 80 uM,25.2 ± 25%
same,percent Bodipy-positive cells,library stock concentration: 400 uM,12.5 ± 2.9%
same,percent Bodipy-positive cells,library stock concentration: 2 mM,66.3 ± 5.8%
same,percent Bodipy-positive cells,[2],99.17 ± 0.23%
CCCn1c(=O)c2[nH]c(C3CCCC3)nc2n(CCCOC(=O)c2ccc(S(=O)(=O)F)cc2)c1=O,percent Bodipy-positive cells,[2],67 ± 4.7%
"CN1CCc2cc3c(cc2C1C1OC(=O)c2c1ccc1c2OCO1)OCO3 (single isomer, unassigned; (+)) [(+)-Bicuculline]",percent Bodipy-positive cells,[3],12.3 ± 4.6%
same,percent Bodipy-positive cells,[2],28.3% and 6.69%
CC(O)(CS(=O)(=O)c1ccc(F)cc1)C(=O)Nc1ccc(C#N)c(C(F)(F)F)c1 (centres undefined) [Bicalutamide],percent Bodipy-positive cells,[3],13.9 ± 3.2%
same,percent Bodipy-positive cells,[2],19.8 ± 2.7%
CC(O)(CS(=O)(=O)c1ccc(F)cc1)C(=O)Nc1ccc(C#N)c(C(F)(F)F)c1 (centres undefined),percent Bodipy-positive cells,[2],17.9 ± 5.1%
CC(O)(CS(=O)(=O)c1ccc(F)cc1)C(=O)Nc1ccc(C#N)c(C(F)(F)F)c1 (centres undefined) [Bicalutamide (CDX)],percent Bodipy-positive cells,[2],24.1 ± 7.8%
O=C(CCCN1CCC2(CC1)C(=O)NCN2c1ccccc1)c1ccc(F)cc1 [Spiperone],percent Bodipy-positive cells,library stock concentration: 5.1 mM,85.4 ± 1.8%
CCOC(=O)c1cncn1[C@H](C)c1ccccc1 [Etomidate],percent Bodipy-positive cells,,8.37 ± 3.4%
same,percent Bodipy-positive cells,[3],10.1 ± 4.3%
same,percent Bodipy-positive cells,[2],15.3% and 10.7% and 31%
CCC1(c2ccc(N)cc2)CCC(=O)NC1=O (racemic) [Dl-aminoglutethimide],percent Bodipy-positive cells,library stock concentration: 8.6 mM,5.89 ± 1.2%
CCCCC/C=C\C/C=C\C/C=C\C/C=C\CCCC(=O)NOCCO [oxy-Arachidonoyl Ethanolamide],percent Bodipy-positive cells,[1],7.03 ± 1.1%
"CCCCCC1OC1C/C=C\CCCCCCCC(=O)O (centres undefined) [Leukotoxin B (12,13-EODE)]",percent Bodipy-positive cells,[4],16.6 ± 12%
CNC1CC(c2ccc(Cl)c(Cl)c2)c2ccccc21 (centres undefined) [Indatraline],percent Bodipy-positive cells,[2],98.3 ± 2.4%
CCCCCCC(C)(C)c1ccc([C@@H]2C[C@H](O)CC[C@H]2CCCO)c(O)c1,percent Bodipy-positive cells,[1],20.9 ± 12%
CN[C@@H]1C[C@H]2O[C@@](C)([C@@H]1OC)n1c3ccccc3c3c4c(c5c6ccccc6n2c5c31)C(=O)NC4 [Staurosporine],percent Bodipy-positive cells,[1],99.47 ± 0.74%
O=C(O)C(Cl)Cl,percent Bodipy-positive cells,[2],4.05 ± 1.6%
"CN1[C@@H]2CC[C@H]1C[C@@H](OC(=O)c1cc(Cl)cc(Cl)c1)C2 [3-Tropanyl-3,5-dichlorobenzoate]",percent Bodipy-positive cells,[2],78.3 ± 2.8%
O=C(O)c1nn(Cc2ccc(Cl)cc2Cl)c2ccccc12 [Lonidamine],percent Bodipy-positive cells,[3],12.2 ± 9.1%
Cc1cc(C(C#N)c2ccc(Cl)cc2)c(Cl)cc1NC(=O)c1cc(I)cc(I)c1O (centres undefined) [Closantel],percent Bodipy-positive cells,library stock concentration: 3 mM,5.46 ± 1.1%
same,percent Bodipy-positive cells,[3],14.2 ± 0.86%
same,percent Bodipy-positive cells,[2],36 ± 3.3%
COc1ccc2c(c1OC)C(=O)O[C@@H]2[C@H]1c2cc3c(cc2CCN1C)OCO3 [Hydrastine hydrochloride],percent Bodipy-positive cells,,36.4 ± 4.5%
"COc1ccc2c(c1OC)C(=O)O[C@@H]2[C@H]1c2cc3c(cc2CCN1C)OCO3 [Hydrastine (1r, 9s)]",percent Bodipy-positive cells,library stock concentration: 5.2 mM,19.1 ± 3.2%
CC(C)(C)c1cc(C=C(C#N)C#N)cc(C(C)(C)C)c1O [Tyrphostin A9],percent Bodipy-positive cells,[2],77.9 ± 4.1%
CC(C)(C)c1cc(C=C(C#N)C#N)cc(C(C)(C)C)c1O [Tyrphostin 9],percent Bodipy-positive cells,[3],32.6 ± 7.9%
same,percent Bodipy-positive cells,library stock concentration: 17.7 mM,76.8 ± 9.9%
"CCCCC/C=C\CC1OC1CCCCCCCC(=O)O (centres undefined) [Leukotoxin A (9,10-EODE)]",percent Bodipy-positive cells,[4],8.22 ± 0.098%
C[C@@H]1C[C@@H]([C@H](O)CC2CC(=O)NC(=O)C2)C(=O)[C@@H](C)C1 [Cycloheximide],percent Bodipy-positive cells,,59.1 ± 1.2%
same,percent Bodipy-positive cells,library stock concentration: 7.1 mM,76.6 ± 3.6%
same,percent Bodipy-positive cells,[2],89.9 ± 1.9%
same,percent Bodipy-positive cells,library stock concentration: 17.8 mM,87.8 ± 6%
CC[C@@H](CO)NC(=O)[C@@H]1C=C2c3cccc4[nH]cc(c34)C[C@H]2N(C)C1 [Methylergonovine maleate],percent Bodipy-positive cells,library stock concentration: 4.4 mM,3.06 ± 2%
CC[C@@H](CO)NC(=O)[C@@H]1C=C2c3cccc4[nH]cc(c34)C[C@H]2N(C)C1 [Methylergometrine maleate],percent Bodipy-positive cells,,40.2 ± 18%
same,percent Bodipy-positive cells,[2],5.12 ± 4.6%
CCC1(C2=NCCN2)Cc2ccccc2O1 (centres undefined) [Efaroxan],percent Bodipy-positive cells,library stock concentration: 9.2 mM,14 ± 1.4%
"COc1ccc2c(c1OC)C(=O)O[C@H]2[C@H]1c2cc3c(cc2CCN1C)OCO3 [1r,9s-hydrastine]",percent Bodipy-positive cells,[2],15.7 ± 1.6%
CN(C)c1ccc(/C=C2\CCCN=C2c2cccnc2)cc1 [DMAB-anabaseine dihydrochloride],percent Bodipy-positive cells,[2],17 ± 0.18%
NC(N)=Nc1ccc2[nH]c3c(c2c1)C[C@@]1(O)[C@H]2Cc4ccc(O)c5c4[C@@]1(CCN2CC1CC1)[C@H]3O5 [GNTI dihydrochloride],percent Bodipy-positive cells,[2],8.13 ± 0.98%
NC(N)=Nc1ccc2[nH]c3c(c2c1)C[C@@]1(O)[C@H]2Cc4ccc(O)c5c4[C@@]1(CCN2CC1CC1)[C@H]3O5 [Guanidinyl-naltrindole di-trifluoroacetate],percent Bodipy-positive cells,[2],73.6 ± 7.8%
CCOC(=O)c1ncn2c1[C@@H]1CCCN1C(=O)c1cc(OC)ccc1-2,percent Bodipy-positive cells,[2],28.9% and 5.48%
CCCCOC(=O)c1ccccc1C(=O)OCCCC [Dibutyl phthalate],percent Bodipy-positive cells,library stock concentration: 7.2 mM,2.06 ± 0.062%
COc1ccc2c(c1O)-c1cccc3c1[C@@H](C2)N(C)CC3 [R(-)-Apocodeine hydrochloride],percent Bodipy-positive cells,[2],79.3 ± 7.7%
C[N+]1(C)CCc2cc3c(cc2[C@H]1[C@@H]1OC(=O)c2c1ccc1c2OCO1)OCO3 [(-)-Bicuculline methochloride],percent Bodipy-positive cells,[2],9.78 ± 4.7%
C[N+]1(C)CCc2cc3c(cc2[C@H]1[C@@H]1OC(=O)c2c1ccc1c2OCO1)OCO3 [(-)-Bicuculline methiodide],percent Bodipy-positive cells,[2],2.67 ± 0.55%
"C[N+]1(C)CCc2cc3c(cc2[C@H]1[C@@H]1OC(=O)c2c1ccc1c2OCO1)OCO3 [(-)-Bicuculline methbromide, 1(S), 9(R)]",percent Bodipy-positive cells,[2],37 ± 1.1%
CCNC(=O)C1OC(n2cnc3c(N)ncnc32)C(O)C1O (centres undefined) [5'-N-Ethylcarboxamidoadenosine (NECA)],percent Bodipy-positive cells,library stock concentration: 16.2 mM,14.4 ± 5.2%
Cc1nnc2n1-c1ccc(Cl)cc1C(c1ccccc1)=NC2 [Alprazolam],percent Bodipy-positive cells,[2],9.82 ± 1.8%
